{"source": "PubChem BioAssay AID1259405 (NCATS, 2018)", "aim": "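Mouse-designed siRNAs used to find CHO productivity engineering targets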 (primary screen)", "cells": "Chinese hamster CHO-K1 ovary cells with stable secreted eGFP expression", "knock-down reagent": "single siRNA against mouse genes, 0.8 pmol siRNA per well (2 µl of 400 nM stock)", "duration": "3 days", "read-out": "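Per-well intracellular GFP measured by laser scanning cytometry, plus viability from ATP luminescence, each relative to plate median of non-targeting control wells, in %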", "direction": "GFP, % of control: higher = more GFP per well, higher productivity; viability (ATP), % of control: higher = more viable cells (more ATP)", "active means": "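a knock-down is called active if GFP reaches 120% or more of non-targeting control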", "note": "Here is one part, drawn at random, of about 50,000 reagents tested. Over the whole deposit, about 4,000 (8%) are marked active. 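Mouse siRNA library applied to hamster cells; one well for each siRNA.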"}
{"gene": "Bard1 (BRCA1 associated RING domain 1)", "PubChem SID": "SID363546597", "GFP, % of control": 91.1, "viability (ATP), % of control": 77.4, "call": "inactive"}
{"gene": "Bard1 (BRCA1 associated RING domain 1)", "PubChem SID": "SID363548353", "GFP, % of control": 71.8, "viability (ATP), % of control": 92.9, "call": "inactive"}
{"gene": "Bard1 (BRCA1 associated RING domain 1)", "PubChem SID": "SID363560531", "GFP, % of control": 100, "viability (ATP), % of control": 92.8, "call": "inactive"}
{"gene": "Tspan12 (tetraspanin 12)", "PubChem SID": "SID363541836", "GFP, % of control": 95.7, "viability (ATP), % of control": 86.4, "call": "inactive"}
{"gene": "Tspan12 (tetraspanin 12)", "PubChem SID": "SID363553428", "GFP, % of control": 114, "viability (ATP), % of control": 67.7, "call": "inactive"}
{"gene": "Tspan12 (tetraspanin 12)", "PubChem SID": "SID363566752", "GFP, % of control": 67.3, "viability (ATP), % of control": 77.3, "call": "inactive"}
{"gene": "Kat6b (K(lysine) acetyltransferase 6B)", "PubChem SID": "SID363545869", "GFP, % of control": 76.7, "viability (ATP), % of control": 87.1, "call": "inactive"}
{"gene": "Kat6b (K(lysine) acetyltransferase 6B)", "PubChem SID": "SID363549382", "GFP, % of control": 54.7, "viability (ATP), % of control": 60.8, "call": "inactive"}
{"gene": "Kat6b (K(lysine) acetyltransferase 6B)", "PubChem SID": "SID363563188", "GFP, % of control": 122, "viability (ATP), % of control": 57.3, "call": "active"}
{"gene": "Scube3 (signal peptide, CUB domain, EGF-like 3)", "PubChem SID": "SID363553617", "GFP, % of control": 81.7, "viability (ATP), % of control": 83.7, "call": "inactive"}
{"gene": "Scube3 (signal peptide, CUB domain, EGF-like 3)", "PubChem SID": "SID363561574", "GFP, % of control": 225, "viability (ATP), % of control": 87.5, "call": "active"}
{"gene": "Scube3 (signal peptide, CUB domain, EGF-like 3)", "PubChem SID": "SID363565312", "GFP, % of control": 105, "viability (ATP), % of control": 45.3, "call": "inactive"}
{"gene": "Tmem215 (transmembrane protein 215)", "PubChem SID": "SID363542796", "GFP, % of control": 62.3, "viability (ATP), % of control": 58.9, "call": "inactive"}
{"gene": "Tmem215 (transmembrane protein 215)", "PubChem SID": "SID363546313", "GFP, % of control": 83.6, "viability (ATP), % of control": 73.8, "call": "inactive"}
{"gene": "Tmem215 (transmembrane protein 215)", "PubChem SID": "SID363548069", "GFP, % of control": 64.8, "viability (ATP), % of control": 75.3, "call": "inactive"}
{"gene": "Hap1 (huntingtin-associated protein 1)", "PubChem SID": "SID363553608", "GFP, % of control": 72.9, "viability (ATP), % of control": 61.9, "call": "inactive"}
{"gene": "Hap1 (huntingtin-associated protein 1)", "PubChem SID": "SID363561565", "GFP, % of control": 105, "viability (ATP), % of control": 62.8, "call": "inactive"}
{"gene": "Hap1 (huntingtin-associated protein 1)", "PubChem SID": "SID363565303", "GFP, % of control": 76.5, "viability (ATP), % of control": 63, "call": "inactive"}
{"gene": "Idh3b (isocitrate dehydrogenase 3 (NAD+) beta)", "PubChem SID": "SID363575122", "GFP, % of control": 120, "viability (ATP), % of control": 74.8, "call": "inactive"}
{"gene": "Idh3b (isocitrate dehydrogenase 3 (NAD+) beta)", "PubChem SID": "SID363580754", "GFP, % of control": 122, "viability (ATP), % of control": 70.3, "call": "active"}
{"gene": "Idh3b (isocitrate dehydrogenase 3 (NAD+) beta)", "PubChem SID": "SID363582866", "GFP, % of control": 127, "viability (ATP), % of control": 92.4, "call": "active"}
{"gene": "Creld1 (cysteine-rich with EGF-like domains 1)", "PubChem SID": "SID363550085", "GFP, % of control": 59.4, "viability (ATP), % of control": 75.4, "call": "inactive"}
{"gene": "Creld1 (cysteine-rich with EGF-like domains 1)", "PubChem SID": "SID363564594", "GFP, % of control": 38.1, "viability (ATP), % of control": 39.2, "call": "inactive"}
{"gene": "Creld1 (cysteine-rich with EGF-like domains 1)", "PubChem SID": "SID363588139", "GFP, % of control": 83.8, "viability (ATP), % of control": 113, "call": "inactive"}
{"gene": "Nagk (N-acetylglucosamine kinase)", "PubChem SID": "SID363581834", "GFP, % of control": 71, "viability (ATP), % of control": 88.5, "call": "inactive"}
{"gene": "Nagk (N-acetylglucosamine kinase)", "PubChem SID": "SID363589328", "GFP, % of control": 48.1, "viability (ATP), % of control": 44.3, "call": "inactive"}
{"gene": "Lratd2 (LRAT domain containing 2)", "PubChem SID": "SID363539550", "GFP, % of control": 69.9, "viability (ATP), % of control": 81, "call": "inactive"}
{"gene": "Lratd2 (LRAT domain containing 2)", "PubChem SID": "SID363560851", "GFP, % of control": 72.5, "viability (ATP), % of control": 87.1, "call": "inactive"}
{"gene": "Lratd2 (LRAT domain containing 2)", "PubChem SID": "SID363564941", "GFP, % of control": 80, "viability (ATP), % of control": 72, "call": "inactive"}
{"gene": "Otof (otoferlin)", "PubChem SID": "SID363553654", "GFP, % of control": 63.3, "viability (ATP), % of control": 76.1, "call": "inactive"}
{"gene": "Otof (otoferlin)", "PubChem SID": "SID363561611", "GFP, % of control": 105, "viability (ATP), % of control": 72, "call": "inactive"}
{"gene": "Otof (otoferlin)", "PubChem SID": "SID363565349", "GFP, % of control": 85.7, "viability (ATP), % of control": 77.7, "call": "inactive"}
{"gene": "Otud7b (OTU domain containing 7B)", "PubChem SID": "SID363573165", "GFP, % of control": 83.3, "viability (ATP), % of control": 78.2, "call": "inactive"}
{"gene": "Otud7b (OTU domain containing 7B)", "PubChem SID": "SID363577741", "GFP, % of control": 82.3, "viability (ATP), % of control": 60.5, "call": "inactive"}
{"gene": "Otud7b (OTU domain containing 7B)", "PubChem SID": "SID363581261", "GFP, % of control": 34.1, "viability (ATP), % of control": 53.8, "call": "inactive"}
{"gene": "Wnt5a (WNT family member 5A)", "PubChem SID": "SID363541636", "GFP, % of control": 44.8, "viability (ATP), % of control": 35.5, "call": "inactive"}
{"gene": "Wnt5a (WNT family member 5A)", "PubChem SID": "SID363553228", "GFP, % of control": 107, "viability (ATP), % of control": 58.3, "call": "inactive"}
{"gene": "Wnt5a (WNT family member 5A)", "PubChem SID": "SID363566552", "GFP, % of control": 84.2, "viability (ATP), % of control": 45.1, "call": "inactive"}
{"gene": "Mmadhc", "PubChem SID": "SID363543651", "GFP, % of control": 78.1, "viability (ATP), % of control": 85.3, "call": "inactive"}
{"gene": "Mmadhc", "PubChem SID": "SID363553144", "GFP, % of control": 56.7, "viability (ATP), % of control": 83.4, "call": "inactive"}
{"gene": "Mmadhc", "PubChem SID": "SID363558992", "GFP, % of control": 87.9, "viability (ATP), % of control": 88.4, "call": "inactive"}

Copied from the listing, 7 entries:
{"gene": "Tmem215 (transmembrane protein 215)", "PubChem SID": "SID363542796", "GFP, % of control": 62.3, "viability (ATP), % of control": 58.9, "call": "inactive"}
{"gene": "Tmem215 (transmembrane protein 215)", "PubChem SID": "SID363546313", "GFP, % of control": 83.6, "viability (ATP), % of control": 73.8, "call": "inactive"}
{"gene": "Tmem215 (transmembrane protein 215)", "PubChem SID": "SID363548069", "GFP, % of control": 64.8, "viability (ATP), % of control": 75.3, "call": "inactive"}
{"gene": "Hap1 (huntingtin-associated protein 1)", "PubChem SID": "SID363553608", "GFP, % of control": 72.9, "viability (ATP), % of control": 61.9, "call": "inactive"}
{"gene": "Hap1 (huntingtin-associated protein 1)", "PubChem SID": "SID363561565", "GFP, % of control": 105, "viability (ATP), % of control": 62.8, "call": "inactive"}
{"gene": "Hap1 (huntingtin-associated protein 1)", "PubChem SID": "SID363565303", "GFP, % of control": 76.5, "viability (ATP), % of control": 63, "call": "inactive"}
{"gene": "Idh3b (isocitrate dehydrogenase 3 (NAD+) beta)", "PubChem SID": "SID363575122", "GFP, % of control": 120, "viability (ATP), % of control": 74.8, "call": "inactive"}
